Taken from: PubChem BioAssay AID1159578 (Peter MacCallum Cancer Centre, 2015)

Purpose: 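siRNA pools altering how lymphatic endothelial cells close a scratch wound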 (primary screen)
Cell system: human lymphatic endothelial cells
Reagent: siRNA pool against human genes, 40 nM
Time to read-out: 48 h after transfection
Measured: 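High-content imaging of dye-stained cells in a scratch assay measures filled wound area and nuclei per well; duplicate means given as ratio to mock and robust z-score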
Scale: migration robust z-score: higher = faster migration into the scratch; migration relative to mock: higher = more scratch area covered than mock; nuclei per well: higher = more cells in the well
Rule for the call: 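Migration changed when robust z exceeds 2 or falls below -2 and mean nuclei number is at least 3300; otherwise not called changed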
Meaning of the calls: active = migration changed; inactive = no migration change, or too few cells
This is an unselected part of about 18,000 reagents. About 1,030 of all reagents (5.7%) were called active. 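Inactive calls also include pools with fewer than 3300 nuclei, whose migration was not assessed.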 The raw values are shown without normalisation. A number with no mark means an inactive call. The numbers tell different reagents against one gene apart.

gene symbol	reagent no.	migration robust z-score	migration class with cell-count check	migration relative to mock	nuclei per well, duplicate mean
GJC2 (GeneID 57165)	1	-0.99	migration z between -2 and 2; enough cells	0.62	3746
BEND7 (GeneID 222389)	1	-0.3	migration z between -2 and 2; enough cells	0.8	4840
OLIG3 (GeneID 167826)	1	0.04	migration z between -2 and 2; enough cells	0.9	5956
GATAD2A (GeneID 54815)	1	-0.55	migration z between -2 and 2; enough cells	0.74	5580
MPC1 (GeneID 51660)	1	1.77	migration z between -2 and 2; enough cells	1.34	4835
XKR5 (GeneID 389610)	1	-0.82	migration z between -2 and 2; enough cells	0.68	6340
PARP1 (GeneID 142)	1	0.73	migration z between -2 and 2; enough cells	0.94	5239
CCDC70 (GeneID 83446)	1	-2.21 (active)	migration z below -2; enough cells	0.3	4826
MRE11 (GeneID 4361)	1	0.86	migration z between -2 and 2; enough cells	0.97	5026
OR4F16 (GeneID 81399)	1	-1.36	migration z between -2 and 2; enough cells	0.54	5036
PLOD1 (GeneID 5351)	1	-2.6 (active)	migration z below -2; enough cells	0.31	5346
MARCHF8 (GeneID 220972)	1	0.08	migration z between -2 and 2; enough cells	0.82	5630
ISM2 (GeneID 145501)	1	-0.36	migration z between -2 and 2; enough cells	0.8	5816
IFNA1 (GeneID 3439)	1	1.71	migration z between -2 and 2; enough cells	1.33	7595
TLL1 (GeneID 7092)	1	0.72	migration z between -2 and 2; enough cells	0.94	4037
WWC1 (GeneID 23286)	1	0.88	migration z between -2 and 2; enough cells	1.12	5886
ANK3 (GeneID 288)	1	0.8	migration z between -2 and 2; enough cells	0.96	5821
CCR3 (GeneID 1232)	1	-0.65	migration z between -2 and 2; enough cells	0.68	6104
ZNF345 (GeneID 25850)	1	0.78	migration z between -2 and 2; enough cells	1.08	5148
RFX2 (GeneID 5990)	1	0.38	migration z between -2 and 2; enough cells	0.88	6710
OPN1MW (GeneID 2652)	1	0.52	migration z between -2 and 2; enough cells	0.9	5552
OBSCN (GeneID 84033)	1	0.11	migration z between -2 and 2; enough cells	0.82	4928
OBSCN (GeneID 84033)	2	-0.53	migration z between -2 and 2; enough cells	0.74	4442
ENAH (GeneID 55740)	1	0.26	migration z between -2 and 2; enough cells	0.95	5553
PCDH10 (GeneID 57575)	1	-0.59	migration z between -2 and 2; enough cells	0.74	5928
EDN2 (GeneID 1907)	1	-1.46	migration z between -2 and 2; enough cells	0.51	4661
HTRA3 (GeneID 94031)	1	-0.02	migration z between -2 and 2; enough cells	0.8	4490
NYNRIN (GeneID 57523)	1	0.93	migration z between -2 and 2; enough cells	1.12	4679
PKIA (GeneID 5569)	1	-1.03	migration z between -2 and 2; enough cells	0.6	5781
IPO11 (GeneID 51194)	1	-0.24	migration z between -2 and 2; enough cells	0.82	5074
SPPL3 (GeneID 121665)	1	1.6	migration z between -2 and 2; enough cells	1.12	6104
SLC39A5 (GeneID 283375)	1	0.85	migration z between -2 and 2; enough cells	1.11	4716
OVOL2 (GeneID 58495)	1	-1.06	migration z between -2 and 2; enough cells	0.61	5197
OR5H2 (GeneID 79310)	1	0.78	migration z between -2 and 2; enough cells	1.09	5294
SPON2 (GeneID 10417)	1	-1.19	migration z between -2 and 2; enough cells	0.57	5510
RIPK4 (GeneID 54101)	1	-1.98	migration z between -2 and 2; enough cells	0.43	5566
TRPV1 (GeneID 7442)	1	-1.46	migration z between -2 and 2; enough cells	0.52	5942
SUMF1 (GeneID 285362)	1	0.33	migration z between -2 and 2; enough cells	0.98	5520
MYLK2 (GeneID 85366)	1	0.26	migration z between -2 and 2; enough cells	0.86	4800
LTN1 (GeneID 26046)	1	-0.03	migration z between -2 and 2; enough cells	0.8	5593
TFCP2 (GeneID 7024)	1	-0.18	migration z between -2 and 2; enough cells	0.77	4222
CD177 (GeneID 57126)	1	1.58	migration z between -2 and 2; enough cells	1.29	7146
NOCT (GeneID 25819)	1	0.8	migration z between -2 and 2; enough cells	0.96	5166
C20orf141 (GeneID 128653)	1	0.17	migration z between -2 and 2; enough cells	0.93	6583
PRKACB (GeneID 5567)	1	0.57	migration z between -2 and 2; enough cells	0.92	4544
SOX2 (GeneID 6657)	1	-0.57	migration z between -2 and 2; enough cells	0.7	6201
SLX9 (GeneID 85395)	1	-0.49	migration z between -2 and 2; enough cells	0.76	5632
RARRES2 (GeneID 5919)	1	1.94	migration z between -2 and 2; enough cells	1.18	5980
BAHCC1 (GeneID 57597)	1	-0.02	migration z between -2 and 2; enough cells	0.88	6138
NEK9 (GeneID 91754)	1	-2.08	under 3300 nuclei; migration not judged	0.4	2604
LGI3 (GeneID 203190)	1	-2.27 (active)	migration z below -2; enough cells	0.3	3308
ITPK1 (GeneID 3705)	1	-1.33	migration z between -2 and 2; enough cells	0.55	5215
PCDHGB5 (GeneID 56101)	1	0.22	migration z between -2 and 2; enough cells	0.94	6002
MAD2L1BP (GeneID 9587)	1	0.76	migration z between -2 and 2; enough cells	1.07	6382
CCDC144BP (GeneID 284047)	1	0.15	migration z between -2 and 2; enough cells	0.92	5345
FAXC (GeneID 84553)	1	-1.77	migration z between -2 and 2; enough cells	0.42	5328
SPATA2L (GeneID 124044)	1	0.36	migration z between -2 and 2; enough cells	0.98	5336
